Test results from PubChem BioAssay AID1487 (National Center for Advancing Translational Sciences (NCATS), 2009).
Some of the results follow. These are further read-outs of the screen, such as a control signal, another cell line or another target. No call is given for them. Compounds called inactive in the main read-out are mostly missing here. Words in brackets tell the shape of the fitted curve; partial curves, single points and poor fits give uncertain potencies.

Assay: qHTS Assay for Modulators of Lamin A Splicing
Conditions: HeLa LMNA splicing GFP/RFP minigene ratio, 48 h
Summary of the method: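 Read-out is the ratio of GFP to DsRed2 object intensity, acquired by 488 nm laser-scanning cytometry on HeLa lamin A-EGFP minigene reporter cells. Compound incubation 48 hrs at 37 °C in Opti-MEM with 2% FBS; DMSO 0.5% final.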

[1] = measured here: GFP splicing reporter channel
[2] = measured here: RFP viability control channel

Row | Structure (SMILES) | AC50 [1] | AC50 [2]
1 | CCCCC(=O)Nc1nc(C)c(-c2csc(Nc3cc(OC)ccc3OC)n2)s1 | 22.4 µM [falling, single point] | 8.91 µM [falling, partial curve, poor fit]
2 | O=C(CNCc1cccs1)Nc1ccc(N2CCCCCC2)cc1 | 10 µM [falling, partial curve, poor fit] | 0.126 µM [falling, full curve]
3 | CN1C(=O)C(O)(CC(=O)c2ccccc2O)c2cc(Br)ccc21 (stereo not given) |  | 7.08 µM [rising, partial curve, poor fit]
4 | CCOC(=O)c1c(C2CC2)csc1NC(=O)CSCc1c(C)noc1C |  | 35.5 µM [rising, single point]
5 | O=c1ccn(Cc2ccc(F)cc2)c2ccnc(C(F)(F)F)c12 | 8.91 µM [rising, partial curve] | 11.2 µM [rising, partial curve]
6 | O=C(CCCc1nc(-c2ccccc2)no1)NCc1cccnc1 | 14.1 µM [rising, partial curve] | 12.6 µM [rising, partial curve]
7 | c1ccc(CNC2=NCCCC2)cc1 | 0.562 µM [falling, full curve] | 0.708 µM [falling, full curve]
8 | N[C@@H]1CONC1=O |  | 6.31 µM [falling, single point]
9 | CCc1nc(SCC(=O)N2CCCc3ccccc32)c2oc3ccccc3c2n1 | 20 µM [falling, single point] | 31.6 µM [falling, single point]
10 | O=C(NCC(c1cccnc1)N1CCN(c2ccccc2F)CC1)OCc1ccccc1 (stereo not given) |  | 31.6 µM [rising, single point]
11 | COc1cc(C(=O)Nc2ccc3c(c2)Cc2ccccc2-3)cc(OC)c1OC |  | 3.16 µM [rising, single point]
12 | Fc1ccccc1NC(=S)N1CCN(C/C=C/c2ccccc2)CC1 |  | 31.6 µM [rising, single point]
13 | Clc1ccccc1CSc1nnc(-c2cccnc2)n1Cc1ccco1 | 0.0126 µM [rising, full curve, poor fit] | 0.0178 µM [rising, full curve]
14 | COc1ccc(CCN(Cc2cccs2)S(=O)(=O)c2ccc(S(=O)(=O)N(C)C3CCCCC3)cc2)cc1OC | 5.62 µM [rising, partial curve] | 6.31 µM [rising, full curve]
15 | COc1cccc(Cn2c(=O)c(-c3cn(C)c4ccccc34)nc3cncnc32)c1 | 0.891 µM [falling, full curve] | 1 µM [falling, full curve]
16 | CN(c1ccccc1)S(=O)(=O)c1nnc(NC(=O)c2ccco2)s1 | 0.0224 µM [rising, full curve, poor fit] | 0.0355 µM [rising, full curve, poor fit]
17 | CCOC(=O)C1=C(C)NC(C)=C(C(=O)OCC)C1c1cccs1 |  | 35.5 µM [rising, single point]
18 | Cc1ccc(NC(=O)c2cc(-c3cccs3)nc3ccccc23)nc1 | 0.00794 µM [rising, full curve, poor fit] | 

Row | Structure (SMILES) | AC50 [1] | AC50 [2]
19 | Oc1ccccc1/C=N/NC(=S)NC1CC2C=CC1C2 (stereo not given) | 5.62 µM [falling, single point] | 20 µM [rising, single point]
20 | COc1ccc(-c2cn(-c3ccc(Br)cc3)c3[n+]2CCS3)cc1 |  | 8.91 µM [rising, partial curve]
21 | O=C(c1sc2cccc(F)c2c1Cl)N1CCN(c2ncccn2)CC1 |  | 0.398 µM [rising, partial curve, poor fit]
22 | Cc1cc(C)cc(NC(=O)Cn2cc(C(=O)c3ccncc3)c(=O)c3cc(C)c(C)cc32)c1 |  | 0.00316 µM [rising, full curve, poor fit]
23 | CC(=O)N=C1SC2CS(=O)(=O)CC2N1c1c(Cl)cccc1Cl (stereo not given) |  | 0.794 µM [rising, full curve, poor fit]
24 | Cc1ccccc1CN1C(=O)c2ccccc2Sc2ccc(C(=O)O)cc21 |  | 8.91 µM [rising, partial curve]
25 | Cc1ccc(NC(=O)NC2CCN(CC(=O)Nc3nccs3)CC2)cc1 |  | 35.5 µM [rising, single point]
26 | O=S(=O)(c1cc(Br)c(Br)s1)N1CCN(c2ccccc2)CC1 |  | 3.16 µM [falling, partial curve, poor fit]
27 | CC(=O)NC(CC(=O)Nc1nc(C)cs1)c1ccccc1 (stereo not given) |  | 2.51 µM [falling, partial curve, poor fit]
28 | CN(Cc1ccco1)c1ncnc2ccc(-c3ccccc3Cl)cc12 | 35.5 µM [falling, single point] | 35.5 µM [falling, single point]
29 | COc1ccc(NC(=O)C2CCN(S(=O)(=O)c3cn(C)cn3)CC2)cc1Cl | 1.41 µM [rising, partial curve] | 
30 | COc1ccc(S(=O)(=O)N(CC(=O)N2CCN(c3ccccc3OC)CC2)c2ccccc2)cc1 | 31.6 µM [rising, single point] | 35.5 µM [rising, partial curve]
31 | CCOC(=O)c1sc2nc(Cc3ccc(Cl)cc3)[nH]c(=S)c2c1C |  | 0.0112 µM [rising, full curve]
32 | Cc1cc(C(=O)COc2ccc(Cl)cc2Br)c(C)n1C |  | 12.6 µM [rising, partial curve]
33 | O=C(CSCc1cnn(-c2ccccc2)c1-n1cccc1)NCc1ccc2c(c1)OCO2 |  | 35.5 µM [rising, single point]
34 | Cc1cccc(NS(=O)(=O)c2ccc3c(c2)OCCO3)c1 |  | 31.6 µM [rising, single point]
35 | Cc1cccc(C)c1NC(=O)C(c1ccccc1)N1CC(=O)Nc2ccccc21 (stereo not given) |  | 2.24 µM [rising, single point]
36 | COc1cc(/C=N/NC(=O)c2cccnc2)ccc1OS(=O)(=O)c1cc(C)ccc1C | 11.2 µM [rising, single point] | 12.6 µM [rising, single point]

Exported as tab-separated lines: entries from further up
Row	Structure (SMILES)	AC50 [1]	AC50 [2]
25	Cc1ccc(NC(=O)NC2CCN(CC(=O)Nc3nccs3)CC2)cc1		35.5 µM [rising, single point]
26	O=S(=O)(c1cc(Br)c(Br)s1)N1CCN(c2ccccc2)CC1		3.16 µM [falling, partial curve, poor fit]
